Measurements as given in patent US10858410B2, “Glycosylated peptides with pseudoproline residues and having enhanced half-lives and ability to cross the blood brain barrier” (ARIZONA BOARD OF REGENTS ON BEHALF OF THE UNIVERSITY OF …, priority 2015, dated 2020).
For part of these data: At least one structure is not confirmed: it was looked up by name or label, or the drawing left a doubt. Some of these results come from one statement about several compounds together.

Columns and labels:
[1] = test system: PC12 cells; assay: Differentiation of cultured PC12 cells; assay type: cell-based; conditions: 100 nM
Description: The PC12 cells were cultured in RPMI containing 5% heat inactivated fetal bovine serum and 10% horse serum in the presence of 100 units/mL penicillin and 100 microgram/mL streptomycin. The cells were plated on poly-D-Lysine coated 6-well tissue culture plates at a density of 150,000 cells per well in 2 mL media. After 48 hours at 37° C. in 5% CO2 atmosphere, media exchange was performed and plates were dosed, using the peptide diluent (water) for the control samples. […] Cell images of each treatment group were captured and compared to the control cells to screen for differentiation and cell body volume increases. Cells having neurite-like process outgrowth were noted and photographed. The neurite-like outgrowth was deemed positive if its length was at least two times the width of the cell body.

[2] = molecular target: T1, human PAC1 receptors (Homo sapiens, UniProt P41586); assay: FLIPR calcium flux, antagonist variable concentration mode versus 5 nM PACAP1-27, PAC1-CHO cells; assay type: cell-based; conditions: NC = not converged, no activity detected
T1 construct: host or cells: CHO (clonal line PAC1-CHO)
T1 sequence (P41586 21-468): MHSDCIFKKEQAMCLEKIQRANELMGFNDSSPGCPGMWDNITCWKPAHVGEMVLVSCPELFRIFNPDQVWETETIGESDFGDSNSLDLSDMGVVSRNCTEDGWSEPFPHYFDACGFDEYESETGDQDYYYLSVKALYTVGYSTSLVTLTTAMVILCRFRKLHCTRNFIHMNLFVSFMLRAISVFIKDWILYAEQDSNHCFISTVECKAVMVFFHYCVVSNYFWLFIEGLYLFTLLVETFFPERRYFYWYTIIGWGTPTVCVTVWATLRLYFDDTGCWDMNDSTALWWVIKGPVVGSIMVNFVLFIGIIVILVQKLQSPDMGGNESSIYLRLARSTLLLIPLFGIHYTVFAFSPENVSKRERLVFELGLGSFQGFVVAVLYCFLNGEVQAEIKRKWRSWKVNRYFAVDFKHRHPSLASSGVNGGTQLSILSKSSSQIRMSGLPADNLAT
Description: A custom DNA clone of the human PAC1 gene with 3 hemagglutinin (HA) tags inserted 3′ to the signal peptide sequence (to avoid proteolytic loss) was obtained from Genecopoeia (Rockville, Md.). The construct was electroporated into Chinese Hamster Ovary (CHO) cells, and selected for with 500 μg/mL of G418. The resulting population was screened for high expressing clones, and one such clone selected for further analysis. […] This cell line was used for all molecular pharmacology experiments. The cells were maintained in DMEM/F12 with 10% heat-inactivated FBS, 1× penicillin/streptomycin, and 500 μg/mL G418, at 37° C. and 5% CO2.
All molecular pharmacology experiments were carried out using a FLIPR Tetra from Molecular Devices (Sunnyvale, Calif.), set to image calcium flux using the manufacturer's recommended settings and protocols. […] The resulting calcium flux was recorded, and the maximum-minimum response over the entire observation time calculated and reported as the mean±SEM (4 wells per point).
For antagonist mode experiments, a concentration curve (variable concentration mode) or fixed amount (fixed concentration mode) of antagonist was added to the cells, and allowed to equilibrate for 2 minutes. […] The resulting data was analyzed using a Gaddum/Schild EC50 shift model, (Schild, 1957, Gaddum, 1957) designed to analyze competitive antagonism. […]

Structure (SMILES)	process outgrowth length relative to cell body width [1]	IC50 [2] [nM]
CC[C@H](C)[C@H](NC(=O)CNC(=O)[C@H](CC(=O)O)NC(=O)[C@H](CO)NC(=O)[C@@H](N)Cc1c[nH]cn1)C(=O)N[C@@H](Cc1ccccc1)C(=O)N[C@H](C(=O)N[C@@H](CC(=O)O)C(=O)N[C@@H](CO)C(=O)N[C@@H](Cc1ccc(O)cc1)C(=O)N[C@@H](CO)C(=O)N[C@@H](CCCNC(=N)N)C(=O)N[C@@H](Cc1ccc(O)cc1)C(=O)N[C@@H](CCCNC(=N)N)C(=O)N[C@@H](CCCCN)C(=O)N[C@@H](CCC(N)=O)C(=O)N[C@@H](CCSC)C(=O)N[C@@H](C)C(=O)N[C@H](C(=O)N[C@@H](CCCCN)C(=O)N[C@@H](CCCCN)C(=O)N[C@@H](Cc1ccc(O)cc1)C(=O)N[C@@H](CC(C)C)C(=O)N[C@@H](C)C(=O)N[C@@H](C)C(=O)N[C@H](C(=O)N[C@@H](CO[C@@H]1O[C@H](CO)[C@@H](O)[C@H](O)[C@H]1O)C(N)=O)C(C)C)C(C)C)[C@@H](C)O [PACAP1-27-S-G]	greater than 2 × the cell body width	
CC[C@H](C)[C@H](NC(=O)CNC(=O)[C@H](CC(=O)O)NC(=O)[C@H](CO)NC(=O)[C@@H](N)Cc1c[nH]cn1)C(=O)N[C@@H](Cc1ccccc1)C(=O)N[C@H](C(=O)N[C@@H](CC(=O)O)C(=O)N[C@@H](CO)C(=O)N[C@@H](Cc1ccc(O)cc1)C(=O)N[C@@H](CO)C(=O)N[C@@H](CCCNC(=N)N)C(=O)N[C@@H](Cc1ccc(O)cc1)C(=O)N[C@@H](CCCNC(=N)N)C(=O)N[C@@H](CCCCN)C(=O)N[C@@H](CCC(N)=O)C(=O)N[C@@H](CCSC)C(=O)N[C@@H](C)C(=O)N[C@H](C(=O)N[C@@H](CCCCN)C(=O)N[C@@H](CCCCN)C(=O)N[C@@H](Cc1ccc(O)cc1)C(=O)N[C@@H](CC(C)C)C(=O)N[C@@H](C)C(=O)N[C@@H](C)C(=O)N[C@H](C(=O)N[C@@H](CC(C)C)C(N)=O)C(C)C)C(C)C)[C@@H](C)O [PACAP1-27]	greater than 2 × the cell body width	
CSCC[C@H](NC(=O)[C@H](CCC(N)=O)NC(=O)[C@H](CCCCN)NC(=O)[C@H](CCCNC(=N)N)NC(=O)[C@H](Cc1ccc(O)cc1)NC(=O)[C@H](CCCNC(=N)N)NC(=O)[C@H](CO)NC(=O)[C@H](Cc1ccc(O)cc1)NC(=O)[C@H](CO)NC(=O)[C@H](CC(=O)O)NC(=O)[C@@H](NC(=O)[C@@H](N)Cc1ccccc1)[C@@H](C)O)C(=O)N[C@@H](C)C(=O)N[C@H](C(=O)N[C@@H](CCCCN)C(=O)N[C@@H](CCCCN)C(=O)N[C@@H](Cc1ccc(O)cc1)C(=O)N[C@@H](CC(C)C)C(=O)N[C@@H](C)C(=O)N[C@@H](C)C(=O)N[C@H](C(=O)N[C@@H](CC(C)C)C(=O)NCC(=O)N[C@@H](CCCCN)C(=O)N[C@@H](CCCNC(=N)N)C(=O)N[C@@H](Cc1ccc(O)cc1)C(=O)N[C@@H](CCCCN)C(=O)N[C@@H](CCC(N)=O)C(=O)N[C@@H](CCCNC(=N)N)C(=O)N[C@H](C(=O)N[C@@H](CCCCN)C(=O)N[C@@H](CC(N)=O)C(=O)N[C@@H](CCCCN)C(N)=O)C(C)C)C(C)C)C(C)C [PACAP6-38]		> 333
